For three molecules, binding results are on record in publication PMC9574515.

Sequences of proteins named here, by UniProt entry; tags and fusion partners are left off. A change or cut given only in a name is not applied to a line headed by its entry. A line that says so, or that is headed by a name, gives the form on record, which may keep a tag or linker.
UniProt Q9UNE7: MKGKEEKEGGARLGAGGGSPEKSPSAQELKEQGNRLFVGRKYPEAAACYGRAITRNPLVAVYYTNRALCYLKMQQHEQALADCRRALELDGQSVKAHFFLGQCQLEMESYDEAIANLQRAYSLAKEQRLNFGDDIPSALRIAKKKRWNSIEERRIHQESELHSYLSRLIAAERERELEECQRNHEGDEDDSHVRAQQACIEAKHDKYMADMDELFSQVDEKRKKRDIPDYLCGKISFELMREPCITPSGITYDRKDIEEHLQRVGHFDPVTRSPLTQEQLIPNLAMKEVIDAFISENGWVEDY
STUB1 ΔTPR-V5 (human (from the RefSeq entry NM_005861.3 and the capital gene symbol)) (Q9UNE7, form named): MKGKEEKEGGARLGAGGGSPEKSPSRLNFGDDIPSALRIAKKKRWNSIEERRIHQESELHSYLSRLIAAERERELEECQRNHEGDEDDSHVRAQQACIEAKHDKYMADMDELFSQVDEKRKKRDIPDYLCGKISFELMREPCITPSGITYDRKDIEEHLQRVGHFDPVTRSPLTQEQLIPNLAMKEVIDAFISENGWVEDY
UniProt Q9WUD1: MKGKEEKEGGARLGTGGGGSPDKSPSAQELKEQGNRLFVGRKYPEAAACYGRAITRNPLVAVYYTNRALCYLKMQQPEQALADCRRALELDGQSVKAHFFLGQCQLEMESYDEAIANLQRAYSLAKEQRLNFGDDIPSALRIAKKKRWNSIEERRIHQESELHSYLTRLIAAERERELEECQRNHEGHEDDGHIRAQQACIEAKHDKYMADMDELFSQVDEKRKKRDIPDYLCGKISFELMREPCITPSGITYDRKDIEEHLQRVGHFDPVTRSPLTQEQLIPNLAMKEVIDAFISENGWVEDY

Like-named read-outs stand apart in the source and are kept apart here. Results are given in words; binding and its absence hold for the method and conditions named. In cells and extracts the contact can be indirect. Some binding calls cover weakened binding; strength is not graded here. For some assays here: Where a sequence is shown, tags or fusion partners need not be part of it.

Holding throughout (test): co-IP; anti-V5 tag magnetic beads on 1 to 2 mg of 32D Cas9 cell lysate (150 mM NaCl, 50 mM Tris pH 7.5, 1% NP40), overnight at 4 °C, Western blot; cells cultured in 0.01 ng/ml IL-3 (also 5 and 0.1 ng/ml IL-3; Ruxolitinib 100 nM for 2 h; sgNT or sgChic2-1/2)
(A western blot detects proteins with antibodies after separation by electrophoresis.)

In assay [1] the target is STUB1 ΔTPR-V5 (human (from the RefSeq entry NM_005861.3 and the capital gene symbol)) (UniProt Q9UNE7).
Assay [2] concerns the target STUB1-V5 (human (from the RefSeq entry NM_005861.3 and the capital gene symbol)) (UniProt Q9UNE7).
Assay [3] deals with V5-CHIC2 (human (from the RefSeq entry NM_012110.3 and the capital gene symbol)) (UniProt Q9UKJ5).
In assay [4] the target is T1, V5-CHIC2 ΔIFRPD (human (from the RefSeq entry NM_012110.3 and the capital gene symbol)) (UniProt Q9UKJ5).
T1 sequence: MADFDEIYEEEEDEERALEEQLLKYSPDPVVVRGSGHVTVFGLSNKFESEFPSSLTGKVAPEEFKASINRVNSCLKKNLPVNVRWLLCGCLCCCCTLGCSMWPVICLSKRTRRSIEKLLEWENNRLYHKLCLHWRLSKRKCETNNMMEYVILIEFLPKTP

The target of assay [5] is STUB1 ΔTPR-V5 (human (from the RefSeq entry NM_005861.3 and the capital gene symbol)) (UniProt Q9UNE7). This is another data set of the same source.
The target in assay [6] is STUB1-V5 (human (from the RefSeq entry NM_005861.3 and the capital gene symbol)) (UniProt Q9UNE7). The source holds these as a separate data set.
Assay [7] has as its target V5-CHIC2 (human (from the RefSeq entry NM_012110.3 and the capital gene symbol)) (UniProt Q9UKJ5). The source holds these as a separate data set.
Assay [8] deals with T1, V5-CHIC2 ΔIFRPD (human (from the RefSeq entry NM_012110.3 and the capital gene symbol)). The source holds these as a separate data set.

Turning to “endogenous Chic2 (from UniProt Q9D9G3 1-165)”, the values for the binding entry in assay [1] and in assay [2] were “no binding” and “binds”, respectively.

As to “endogenous Stub1 (from UniProt Q9WUD1 1-304) (enzyme)”, the figures for the binding result in assay [3] and in assay [4] were “binds” and “no binding”, respectively.

B1: endogenous Csf2rb (receptor, UniProt P26955 23-896)
chain: HGVTEAEETVPLKTLQCYNDYTNHIICSWADTEDAQGLINMTLYHQLEKKQPVSCELSEELMWSECPSSHRCVPRRCVIPYTRFSITNEDYYSFRPDSDLGIQLMVPLAQNVQPPLPKNVSISSSEDRFLLEWSVSLGDAQVSWLSSKDIEFEVAYKRLQDSWEDAYSLHTSKFQVNFEPKLFLPNSIYAARVRTRLSPGSSLSGRPSRWSPEVHWDSQPGDKAQPQNLQCFFDGIQSLHCSWEVWTQTTGSVSFGLFYRPSPVAPEEKCSPVVKEPPGASVYTRYHCSLPVPEPSAHSQYTVSVKHLEQGKFIMSYNHIQMEPPTLNLTKNRDSYSLHWETQKMAYSFIEHTFQVQYKKKSDSWEDSKTENLDRAHSMDLSQLEPDTSYCARVRVKPISNYDGIWSKWSEEYTWKTDWVMPTLWIVLILVFLILTLLLILRFGCVSVYRTYRKWKEKIPNPSKSLLFQDGGKGLWPPGSMAAFATKNPALQGPQSRLLAEQQGESYAHLEDNNVSPLTIEDPNIIRVPPSGPDTTPAASSESTEQLPNVQVEGPTPNRPRKQLPSFDFNGPYLGPPQSHSLPDLPDQLGSPQVGGSLKPALPGSLEYMCLPPGGQAQLVPLSQVMGQGQAMDVQCGSSLETSGSPSVEPKENPPVELSMEEQEARDNPVTLPISSGGPEGSMMASDYVTPGDPVLTLPTGPLSTSLGPSLGLPSAQSPSLCLKLPRVPSGSPALGPPGFEDYVELPPSVSQAAKSPPGHPAPPVASSPTVIPGEPREEVGPASPHPEGLLVLQQVGDYCFLPGLGPGSLSPHSKPPSPSLCSETEDLVQDLSVKKFPYQPMPQAPAIQFFKSLKHQDYLSLPPWDNSQSGKVC
Consider B1, for which the binding result is on record as “no binding” in assay [5], “binds” in assay [6], “binds” in assay [7] and “binds” in assay [8].
